Test results: paper PMC11425893
No constants are given. Whether binding was seen depends on the method and setting. In cells and extracts the contact can be indirect. Some binding calls cover weakened binding; strength is not graded here.

Chains of the proteins cited; added tags and fusions are not shown.
UniProt P09528: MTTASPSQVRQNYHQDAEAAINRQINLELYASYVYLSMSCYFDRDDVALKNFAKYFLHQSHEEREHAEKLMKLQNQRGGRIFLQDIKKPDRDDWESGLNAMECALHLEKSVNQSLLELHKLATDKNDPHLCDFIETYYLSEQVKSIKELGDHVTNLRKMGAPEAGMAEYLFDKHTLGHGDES

Target: ferritin heavy chain 1 (FTH1), mouse heart (mouse (endogenous in heart tissue)) (UniProt P09528)
Experiment: co-IP; heart tissue of control mice and mice treated with DOX with or without PrA; n = 3 per group

binding: binds
B1: NCOA4, mouse heart (protein, UniProt Q5U4H9 1-625)
chain: MNTSLEQSGCYSNRETLLRCSDARRELELAIGGVLRAEQQIKDNLREVKAQIHSCISRHLECLRSREVWLNEQVDLIYQLKEETLQQQAQQLYWLMGQFNCLIHQLEYTQNKDLANQVSVCLERLGSLALKPEDSTVLLFEADTSALRQTITTFGSLKTIQIPEHLMAHASSSSIGPFLEKRGYIQVPEQKSASSGTAVSLSEWLLVSKPAIGLQAPYVPSTNPQDWLIPKQTSENSQTSARACSFFSDAWGNLKGLENWLLNSHQQEIAGKPSSSKCNSHCSTSSFSPEAEKAEDVELLDQDELDLSDWLVTPQEPCELEKPVDGSWETSEKFKLLFQVFREPYNVSDWLVKPDSCTNCQGNQPRGVEIENLGNLKCLNDHLEAKKSVSVPGATISDGWLAQNHQDTWKVEEVCKANEPCTSFAECVCDDNCEKEAMYKWLLKKGGKDKNGMPMEPKSEPEKHRESLTLWLCPSRNELTEQAKAPKAMAPARIADSFHVIKNSSLSEWLMGPTCKGGPKDVPNTEERAGKEMLQSSMATSWCPFNTADWVLPGKKVGSLSQFPSGEDKWLLRKKAQEAFLNSPLQEERNFRPDCYGLPAVCDLFACMQLKVDKEKWLYRTPLQM
